Test results as given in PMC4856089.
No constants are given. Whether binding was seen depends on the method and setting. Binding seen in cells or lysates may run through a third protein. Binding can be weak; no strength is given.

Chains of the proteins cited; added tags and fusions are not shown. Lines headed by an entry give the natural chain unless they say otherwise; changes in a name come on top.
UniProt Q8RWQ8: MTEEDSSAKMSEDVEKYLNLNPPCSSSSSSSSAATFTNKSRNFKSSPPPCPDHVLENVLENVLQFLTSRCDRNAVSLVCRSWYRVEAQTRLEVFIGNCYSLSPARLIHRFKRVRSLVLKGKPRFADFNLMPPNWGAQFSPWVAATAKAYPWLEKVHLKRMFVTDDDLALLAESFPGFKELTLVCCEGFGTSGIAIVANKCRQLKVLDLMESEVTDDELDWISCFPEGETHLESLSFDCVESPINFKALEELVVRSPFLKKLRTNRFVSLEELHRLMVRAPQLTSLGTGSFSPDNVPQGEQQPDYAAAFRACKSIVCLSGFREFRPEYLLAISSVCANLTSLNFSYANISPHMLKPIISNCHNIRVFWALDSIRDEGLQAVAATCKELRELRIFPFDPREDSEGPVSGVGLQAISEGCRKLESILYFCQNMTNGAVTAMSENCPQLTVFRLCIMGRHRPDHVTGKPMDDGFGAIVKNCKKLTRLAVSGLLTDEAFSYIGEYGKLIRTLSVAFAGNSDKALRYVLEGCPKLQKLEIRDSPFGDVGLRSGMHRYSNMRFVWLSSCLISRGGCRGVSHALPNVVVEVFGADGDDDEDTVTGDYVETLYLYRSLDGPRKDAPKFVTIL
UniProt Q9LTX2: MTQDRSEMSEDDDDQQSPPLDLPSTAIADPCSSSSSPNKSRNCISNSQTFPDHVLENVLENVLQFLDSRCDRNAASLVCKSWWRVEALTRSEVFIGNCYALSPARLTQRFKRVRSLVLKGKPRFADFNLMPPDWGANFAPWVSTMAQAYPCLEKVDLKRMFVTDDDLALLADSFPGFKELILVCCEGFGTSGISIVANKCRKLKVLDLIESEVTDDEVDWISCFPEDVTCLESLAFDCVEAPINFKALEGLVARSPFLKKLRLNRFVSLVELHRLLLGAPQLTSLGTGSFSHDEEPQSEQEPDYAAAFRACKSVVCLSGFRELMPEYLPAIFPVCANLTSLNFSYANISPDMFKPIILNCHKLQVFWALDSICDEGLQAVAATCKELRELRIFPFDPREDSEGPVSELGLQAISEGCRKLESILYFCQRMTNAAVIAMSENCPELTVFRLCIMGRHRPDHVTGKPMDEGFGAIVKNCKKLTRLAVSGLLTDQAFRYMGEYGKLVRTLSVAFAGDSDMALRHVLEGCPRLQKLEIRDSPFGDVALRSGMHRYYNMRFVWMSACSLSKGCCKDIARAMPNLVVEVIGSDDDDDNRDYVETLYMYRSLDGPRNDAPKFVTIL
UniProt Q39255: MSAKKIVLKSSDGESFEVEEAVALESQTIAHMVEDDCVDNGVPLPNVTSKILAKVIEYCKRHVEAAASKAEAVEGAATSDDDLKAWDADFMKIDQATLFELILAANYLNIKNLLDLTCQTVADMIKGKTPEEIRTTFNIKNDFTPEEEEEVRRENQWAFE

How the values were obtained:
[1] = biological target: AFB4-Myc (pAFB5:AFB4-4×Myc) (Arabidopsis thaliana) (UniProt Q8RWQ8); experiment: co-IP; Myc-tagged F-box proteins immunoprecipitated from crude plant extracts with anti-c-Myc antibody coupled to agarose beads; ASK1 detected by blot with anti-ASK1 antibody
[2] = biological target: AFB5-Myc (pAFB5:AFB5-4×Myc) (Arabidopsis thaliana) (UniProt Q9LTX2); experiment: as above

- binding [1]: binds
- binding [2]: binds
Substance: ASK1 (Arabidopsis SKP1-related protein) (from UniProt Q39255 1-160)
